In article PMC3089606, “The E. coli Anti-Sigma Factor Rsd: Studies on the Specificity and Regulation of Its Expression” (PLoS ONE, 2011):
These are yes or no findings as the source states them, for the method shown. Some binding calls cover weakened binding; strength is not graded here.

Protein sequences, listed by entry. Tags and fused reporters are not part of them.
UniProt P13445: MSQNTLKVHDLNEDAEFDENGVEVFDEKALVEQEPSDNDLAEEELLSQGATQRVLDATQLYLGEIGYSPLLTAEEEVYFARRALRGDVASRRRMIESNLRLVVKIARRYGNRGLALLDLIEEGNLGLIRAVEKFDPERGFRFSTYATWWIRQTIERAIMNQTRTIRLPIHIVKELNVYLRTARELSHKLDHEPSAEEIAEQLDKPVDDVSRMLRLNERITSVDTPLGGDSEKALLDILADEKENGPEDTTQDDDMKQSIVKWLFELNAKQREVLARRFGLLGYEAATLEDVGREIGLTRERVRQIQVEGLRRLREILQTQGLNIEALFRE

Target: T1, Rsd (regulator of sigma D), native protein (E. coli) (UniProt P0AFX4)
T1 sequence: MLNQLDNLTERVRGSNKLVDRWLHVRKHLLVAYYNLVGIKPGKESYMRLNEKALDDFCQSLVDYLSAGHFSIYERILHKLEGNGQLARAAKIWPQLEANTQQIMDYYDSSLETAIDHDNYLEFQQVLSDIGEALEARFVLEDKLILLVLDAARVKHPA
Assay: cross-linking; 3 µg Rsd with 3 µg σ^70, σ^38 or Rsd (or each protein alone), 30 minutes in 15 µl 50 mM HEPES pH 7.4, 5% glycerol, 0.1 mM EDTA, 0.1 mM DTT; 0.02% glutaraldehyde, room temperature 30 minutes; SDS gel, Coomassie staining; both purified

RNA polymerase sigma factor σ^38 (from UniProt P13445 1-330)
binding: binds weakly
